Counter-ions that a name gives are not always drawn. The list shows a part of the results. The calls rarely recur for the same compound in another form.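 In K562 cells expressing nanoluciferase-fused kinases, luminescence was recorded at 4 h intervals between 2 and 18 h, normalized as percent of control with DMSO at 100% and a positive control at 0%. A significant (2 sigma) signal drop marks a time point as decreased. The authors' rule for a hit is not shown and takes in more than the number of time points.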
The compounds below were run against PRKCA (UniProt P17252) (assay: number of time points (of 5) at which kinase-Nluc abundance scored as decreased, DMSO-normalised (count); higher = more persistent destabilization). Conditions: K562; 2-18 h.

SMILES | number of time points
COc1ccc(Br)c(C=O)c1O [6-Bromo-2-hydroxy-3-methoxybenzaldehyde] (10 µM) | 0
O=C1C=CC2=C3c4cc(O)c(O)cc4CC3(O)COC2=C1O (configuration not stated) [Hematein] (10 µM) | 0
Cc1cccc(CC(=O)N2CCc3c2ccc(-c2cn(C)c4ncnc(N)c24)c3F)n1 (10 µM) | 0
COCCOc1cnc2ccn([C@H](C)c3nnc4c(F)cc(-c5cnn(C)c5)cn34)c(=O)c2c1 (10 µM) | 0
Cn1cc(C2=C(c3ccc(Cl)cc3Cl)C(=O)NC2=O)c2ccccc21 (10 µM) | 0
COc1cc(N2CCC(N3CCN(C)CC3)CC2)ccc1Nc1ncnc(Nc2ccccc2S(=O)(=O)C(C)C)n1 (10 µM) | 0
COc1c(Nc2ncc(Cl)c(N[C@H]3[C@@H](C(N)=O)[C@@H]4C=C[C@H]3C4)n2)ccc2c1CC[C@@H](N1CCOCC1)CC2 (10 µM) | 0
Cc1ccc(NC(=O)N2CCN(c3nc(N)nc4sc(-c5cccnc5)nc34)CC2)cc1 [PI4KIII beta inhibitor 3] (10 µM) | 0
CNc1cc2c(Nc3cccc(Br)c3)ncnc2cn1 (10 µM) | 0
CC(C)n1c(CO)nc2c(F)cc(-c3nc(Nc4ccc(CN5CCNCC5)cn4)ncc3F)cc21 (10 µM) | 0
CN1CCC(Nc2ccc(C(=O)Nc3cc(-c4ccc5c(c4)OCO5)[nH]n3)cc2)CC1 (10 µM) | 0
CNC(=O)CN1CCC(Oc2cc3c(Nc4cccc(Cl)c4F)ncnc3cc2OC)CC1 [Sapitinib] (10 µM) | 0
O=C(O)c1c[nH]c2cc(Cl)c(-c3ccc(C4(O)CCC4)cc3)cc12 (10 µM) | 0
COc1cc(N2CCC(O)CC2)ccc1Nc1nc(Nc2ccccc2S(=O)(=O)C(C)C)c2[nH]cnc2n1 (10 µM) | 0
O=c1c(O)c(-c2ccc(O)c(O)c2)oc2cc(O)c(O)c(O)c12 [Quercetagetin] (10 µM) | 0
Cc1ncsc1-c1ccc(CNC(=O)[C@@H]2C[C@@H](O)CN2C(=O)[C@@H](NC(=O)COCCOc2ccc(-c3cc(Nc4ccc(OC(F)(F)F)cc4)ncn3)cc2)C(C)(C)C)cc1 (2.5 µM) | 0

SMILES | number of time points
COc1cc(Nc2ccnc3ccc(Br)cc23)cc(OC)c1OC (2.5 µM) | 0
Cc1ccc2c(NS(=O)(=O)c3ccccc3Cl)cccc2c1Oc1ncccc1-c1ccnc(N[C@H]2CCCNC2)n1 (2.5 µM) | 0
CC(C)c1cc2c(c(O)c1O)[C@@]13CCCC(C)(C)[C@@H]1C[C@@H]2OC3=O [Carnosol] (2.5 µM) | 0
Cc1nc2c(NCc3cccc(S(C)(=O)=O)c3)nccn2c1-c1ccc(O)c(F)c1 (10 µM) | 1
CC(C)n1cnc2c(Nc3cccc(Cl)c3)nc(N[C@H]3CCCC[C@@H]3N)nc21 (2.5 µM) | 0
O=c1cc(N2CCOCC2)oc2c(-c3cccc4c3sc3ccccc34)cccc12 (10 µM) | 0
C[C@@H]1COC(Nc2ccc3ncnc(Nc4ccc(OCc5nccs5)c(Cl)c4)c3c2)=N1 [Varlitinib] (10 µM) | 0
Cc1cncc2cccc(S(=O)(=O)N3CCCNC[C@@H]3C)c12 [H-1152 (dihydrochloride)] (10 µM) | 0
CCC[C@H](C)Oc1nc(N)c2[nH]c(=O)n(CCCCCN3CCCCC3)c2n1 (10 µM) | 0
CC(C)(Oc1ccc(Cl)cc1)C(=O)Nc1ccc(OCc2ccc(C#N)cc2)cc1 [AMPK activator 4] (10 µM) | 0
Cc1cc(N2CCOCC2)ccc1Nc1nc(NC2CCCCC2)c2[nH]cnc2n1 (10 µM) | 0
CC(ONC(=O)c1cc(C(F)(F)F)cc(C(F)(F)F)c1)C(=O)Nc1ccc(Cl)cc1 (configuration not stated) (2.5 µM) | 0
O=S(=O)(c1ccc(O)cc1O)N1Cc2cc(O)cc(O)c2C1 (10 µM) | 0
CN1CCN(c2ccc(-n3cc(-c4ccncc4OCC4CCNCC4)cn3)cc2)CC1 [MELK-8a (hydrochloride)] (10 µM) | 0
CCCCC(=O)OCC(=O)[C@]1(O)Cc2c(O)c3c(c(O)c2[C@@H](O[C@H]2C[C@H](NC(=O)C(F)(F)F)[C@H](O)[C@H](C)O2)C1)C(=O)c1c(OC)cccc1C3=O [Valrubicin] (10 µM) | 0
CC(C)=CCC[C@](C)(O[C@@H]1O[C@H](CO[C@@H]2O[C@H](CO)[C@@H](O)[C@H](O)[C@H]2O)[C@@H](O)[C@H](O)[C@H]1O)[C@H]1CC[C@]2(C)[C@@H]1[C@H](O)C[C@@H]1[C@@]3(C)CC[C@H](O[C@@H]4O[C@H](CO)[C@@H](O)[C@H](O)[C@H]4O[C@@H]4O[C@H](CO)[C@@H](O)[C@H](O)[C@H]4O)C(C)(C)[C@@H]3CC[C@]12C [Ginsenoside Rb1] (10 µM) | 0

Copied from the entries so far for reference:
SMILES | number of time points
C[C@@H]1COC(Nc2ccc3ncnc(Nc4ccc(OCc5nccs5)c(Cl)c4)c3c2)=N1 [Varlitinib] (10 µM) | 0
Cc1cncc2cccc(S(=O)(=O)N3CCCNC[C@@H]3C)c12 [H-1152 (dihydrochloride)] (10 µM) | 0

— the supplement of paper PMC12823440, “Inhibitors supercharge kinase turnover through native proteolytic circuits” (Nature, 2025)
